PubChem BioAssay AID743454 | Peter MacCallum Cancer Centre, 2014
Screen: 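Search for knock-downs that restore vorinostat killing in resistant colon cancer cells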 (primary screen). Cell system: human HCT116-VR colon cancer cells, selected for vorinostat resistance. Reagents: siRNA pool against human genes, 40 nM siRNA pool. Duration: vorinostat for 24 h, read-out about 72 h after transfection. Treatment: vorinostat at 2.5 µM final. Read-out: 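Two measures, CellTiter-Fluor viability and luminescent caspase 3/7 activity, each as fold change against same-plate mock wells, mean of duplicates, then screen-wide robust z-score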. Scale: viability robust z-score: higher = more viable cells than screen typical; caspase robust z-score: higher = more caspase 3/7 activity than screen typical. Rule for the call: 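a knock-down is a hit when classed RV1 or RV2 for lowered viability, or CA1 or CA2 for caspase activation; those lethal without drug were dropped; hits were retested singly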.
Here is a random part of about 18,000 reagents tested. In the full data, 450 (2.5%) got an active call. 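Single biological run; no consistent viability z cut-off exists, so the class columns, not z-scores, define the calls.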 Unmarked entries are inactive.

gene knocked down	viability hit class	caspase hit class	viability robust z-score	caspase robust z-score
BHLHE22 (basic helix-loop-helix family member e22)	no change	no change	1.7	-0.26
TMEM168 (transmembrane protein 168)	no change	no change	0.1	-0.86
ZNF641 (zinc finger protein 641)	no change	no change	0.78	2.32
AGTR2 (angiotensin II receptor type 2)	no change	no change	-1.69	3.35
ACTR10 (actin related protein 10)	no change	no change	-0.68	-0.44
TCTN1 (tectonic family member 1)	no change	no change	0.16	1.1
SLCO1B7	no change	no change	1.36	0.87
ABAT (4-aminobutyrate aminotransferase)	no change	no change	1.43	-0.9
GSTM2 (glutathione S-transferase mu 2)	no change	no change	-0.78	-0.52
HOXB6 (homeobox B6)	no change	no change	1.88	0.84
KCNIP4 (potassium voltage-gated channel interacting protein 4)	no change	no change	-0.73	-0.64
ATP13A4 (ATPase 13A4)	no change	no change	0.06	-0.16

The list goes on; the last 3 above are carried over.
gene knocked down	viability hit class	caspase hit class	viability robust z-score	caspase robust z-score
HOXB6 (homeobox B6)	no change	no change	1.88	0.84
KCNIP4 (potassium voltage-gated channel interacting protein 4)	no change	no change	-0.73	-0.64
ATP13A4 (ATPase 13A4)	no change	no change	0.06	-0.16
PFKP (phosphofructokinase, platelet)	no change	no change	-0.43	-1.02
HIGD1A (HIG1 hypoxia inducible domain family member 1A)	no change	no change	0.6	-0.68
CACHD1 (cache domain containing 1)	no change	no change	-0.37	-0.6
C3 (complement C3)	no change	no change	0.65	-0.25
CALM2 (calmodulin 2)	RV2 (reduced viability) (active)	no change	-3.44	2.4
NUB1 (negative regulator of ubiquitin like proteins 1)	no change	no change	0.22	0.83
ALDH9A1 (aldehyde dehydrogenase 9 family member A1)	no change	no change	-0.65	-0.44
VCAM1 (vascular cell adhesion molecule 1)	no change	no change	0.52	-0.31
KANSL2 (KAT8 regulatory NSL complex subunit 2)	no change	no change	0.49	-0.6
CSPG5 (chondroitin sulfate proteoglycan 5)	no change	no change	-0.24	0.48
TEX55 (testis expressed 55)	no change	no change	-0.78	3.5
